Experimental data published in the supplement of paper PMC10849652.
This is one part of the list.

Amino acid sequences for entries named in this document (tags omitted). A change or cut given only in a name is not applied to a line headed by its entry.
UniProt Q9HCC0: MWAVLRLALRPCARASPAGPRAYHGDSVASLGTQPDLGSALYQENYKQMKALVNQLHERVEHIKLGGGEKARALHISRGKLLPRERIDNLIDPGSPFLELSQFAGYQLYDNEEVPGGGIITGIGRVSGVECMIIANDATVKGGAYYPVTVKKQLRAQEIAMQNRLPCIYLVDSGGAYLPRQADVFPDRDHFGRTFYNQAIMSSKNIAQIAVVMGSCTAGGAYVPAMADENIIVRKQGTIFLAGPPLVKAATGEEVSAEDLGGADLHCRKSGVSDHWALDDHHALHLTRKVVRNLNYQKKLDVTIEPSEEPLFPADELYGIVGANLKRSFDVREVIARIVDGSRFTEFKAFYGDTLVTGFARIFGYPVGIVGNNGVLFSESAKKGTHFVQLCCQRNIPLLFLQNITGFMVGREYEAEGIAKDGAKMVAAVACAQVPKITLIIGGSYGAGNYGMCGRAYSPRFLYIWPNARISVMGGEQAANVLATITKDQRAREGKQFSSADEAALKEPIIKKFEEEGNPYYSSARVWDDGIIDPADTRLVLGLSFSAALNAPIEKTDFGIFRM
UniProt Q68D91: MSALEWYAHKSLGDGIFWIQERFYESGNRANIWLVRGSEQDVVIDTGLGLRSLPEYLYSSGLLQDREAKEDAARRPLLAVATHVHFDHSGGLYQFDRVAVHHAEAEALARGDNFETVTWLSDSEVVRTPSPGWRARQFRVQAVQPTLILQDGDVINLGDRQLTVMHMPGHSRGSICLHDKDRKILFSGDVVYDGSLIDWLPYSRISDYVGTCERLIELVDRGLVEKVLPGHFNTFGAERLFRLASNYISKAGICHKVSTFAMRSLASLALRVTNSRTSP
UniProt Q6P9B6: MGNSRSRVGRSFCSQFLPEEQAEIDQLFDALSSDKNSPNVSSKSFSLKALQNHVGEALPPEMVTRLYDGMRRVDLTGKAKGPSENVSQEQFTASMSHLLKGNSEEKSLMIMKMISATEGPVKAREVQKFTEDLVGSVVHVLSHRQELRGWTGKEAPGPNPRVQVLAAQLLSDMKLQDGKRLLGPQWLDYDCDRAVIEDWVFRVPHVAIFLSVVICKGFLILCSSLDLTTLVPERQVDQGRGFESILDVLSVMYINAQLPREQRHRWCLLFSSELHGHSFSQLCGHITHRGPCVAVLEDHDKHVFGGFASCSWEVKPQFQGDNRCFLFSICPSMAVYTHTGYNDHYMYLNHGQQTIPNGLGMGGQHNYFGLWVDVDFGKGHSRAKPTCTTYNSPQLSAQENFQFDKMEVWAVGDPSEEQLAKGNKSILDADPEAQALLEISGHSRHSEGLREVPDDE
UniProt Q9BUE0: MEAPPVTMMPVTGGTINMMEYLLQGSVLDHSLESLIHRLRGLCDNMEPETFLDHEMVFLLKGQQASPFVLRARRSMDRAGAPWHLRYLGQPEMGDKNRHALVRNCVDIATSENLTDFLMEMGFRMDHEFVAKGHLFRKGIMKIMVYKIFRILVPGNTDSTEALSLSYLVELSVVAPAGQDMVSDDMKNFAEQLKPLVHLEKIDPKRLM
UniProt O60244: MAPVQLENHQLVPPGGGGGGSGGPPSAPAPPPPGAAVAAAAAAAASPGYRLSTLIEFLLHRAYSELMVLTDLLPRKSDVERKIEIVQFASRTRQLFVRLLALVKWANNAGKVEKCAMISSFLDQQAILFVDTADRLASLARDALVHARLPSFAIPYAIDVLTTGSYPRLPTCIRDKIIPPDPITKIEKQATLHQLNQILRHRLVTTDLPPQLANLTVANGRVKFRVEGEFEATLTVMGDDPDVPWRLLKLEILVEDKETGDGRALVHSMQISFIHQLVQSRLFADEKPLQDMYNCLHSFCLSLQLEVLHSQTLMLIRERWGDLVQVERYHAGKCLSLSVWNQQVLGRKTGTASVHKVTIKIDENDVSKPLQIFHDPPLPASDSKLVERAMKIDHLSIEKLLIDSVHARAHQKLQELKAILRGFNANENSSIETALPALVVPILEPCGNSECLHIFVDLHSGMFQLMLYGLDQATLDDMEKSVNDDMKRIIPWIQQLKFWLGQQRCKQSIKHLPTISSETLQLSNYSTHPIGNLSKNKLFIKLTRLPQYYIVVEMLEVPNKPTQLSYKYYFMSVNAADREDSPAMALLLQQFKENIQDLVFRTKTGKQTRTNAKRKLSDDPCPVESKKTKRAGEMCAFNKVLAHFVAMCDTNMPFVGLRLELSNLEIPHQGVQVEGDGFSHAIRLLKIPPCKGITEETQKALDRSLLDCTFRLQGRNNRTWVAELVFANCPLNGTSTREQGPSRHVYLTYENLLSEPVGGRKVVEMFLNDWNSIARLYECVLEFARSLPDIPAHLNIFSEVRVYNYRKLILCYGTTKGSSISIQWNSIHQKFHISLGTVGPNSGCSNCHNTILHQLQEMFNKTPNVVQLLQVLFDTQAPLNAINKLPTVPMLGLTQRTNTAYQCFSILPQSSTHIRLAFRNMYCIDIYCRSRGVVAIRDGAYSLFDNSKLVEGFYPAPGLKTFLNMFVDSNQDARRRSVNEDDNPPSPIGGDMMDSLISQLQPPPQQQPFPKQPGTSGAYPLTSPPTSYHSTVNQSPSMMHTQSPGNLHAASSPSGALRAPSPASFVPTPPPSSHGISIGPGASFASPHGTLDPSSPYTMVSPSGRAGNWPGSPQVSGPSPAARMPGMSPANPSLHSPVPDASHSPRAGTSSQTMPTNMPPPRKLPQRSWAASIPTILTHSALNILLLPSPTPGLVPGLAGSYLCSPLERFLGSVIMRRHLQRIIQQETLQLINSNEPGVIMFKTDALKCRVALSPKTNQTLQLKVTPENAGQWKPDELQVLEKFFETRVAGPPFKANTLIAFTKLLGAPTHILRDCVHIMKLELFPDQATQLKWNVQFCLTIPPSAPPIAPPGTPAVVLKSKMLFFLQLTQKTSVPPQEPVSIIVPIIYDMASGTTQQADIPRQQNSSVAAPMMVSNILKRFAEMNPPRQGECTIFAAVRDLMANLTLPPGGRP
UniProt Q09328: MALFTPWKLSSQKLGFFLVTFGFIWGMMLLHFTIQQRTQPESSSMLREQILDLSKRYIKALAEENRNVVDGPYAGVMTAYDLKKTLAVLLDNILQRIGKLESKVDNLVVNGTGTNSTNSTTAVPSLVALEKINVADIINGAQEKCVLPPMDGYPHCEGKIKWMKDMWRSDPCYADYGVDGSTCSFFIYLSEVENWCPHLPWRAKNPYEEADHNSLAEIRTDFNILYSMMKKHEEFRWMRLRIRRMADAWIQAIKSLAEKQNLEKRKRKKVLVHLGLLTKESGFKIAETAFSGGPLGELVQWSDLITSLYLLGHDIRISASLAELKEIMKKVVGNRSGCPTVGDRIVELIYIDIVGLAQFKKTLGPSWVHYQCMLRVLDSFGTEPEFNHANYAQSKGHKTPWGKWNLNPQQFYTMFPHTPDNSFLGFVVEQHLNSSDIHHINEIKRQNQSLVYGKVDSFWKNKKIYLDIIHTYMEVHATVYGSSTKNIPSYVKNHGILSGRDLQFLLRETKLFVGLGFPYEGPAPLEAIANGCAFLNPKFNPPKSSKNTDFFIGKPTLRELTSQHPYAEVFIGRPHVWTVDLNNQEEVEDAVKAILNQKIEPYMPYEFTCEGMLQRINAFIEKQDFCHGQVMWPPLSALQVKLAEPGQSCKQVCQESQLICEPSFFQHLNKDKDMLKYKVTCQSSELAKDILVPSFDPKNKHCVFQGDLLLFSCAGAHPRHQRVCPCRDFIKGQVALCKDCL
UniProt Q9UBP6: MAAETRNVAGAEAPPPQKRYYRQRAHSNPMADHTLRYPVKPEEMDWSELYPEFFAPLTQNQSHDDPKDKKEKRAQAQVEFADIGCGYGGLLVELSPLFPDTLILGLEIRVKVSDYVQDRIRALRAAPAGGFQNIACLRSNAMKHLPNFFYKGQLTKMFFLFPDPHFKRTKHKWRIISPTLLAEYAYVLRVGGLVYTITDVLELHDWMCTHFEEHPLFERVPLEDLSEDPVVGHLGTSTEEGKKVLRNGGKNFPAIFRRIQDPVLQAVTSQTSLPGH
UniProt Q96RN5: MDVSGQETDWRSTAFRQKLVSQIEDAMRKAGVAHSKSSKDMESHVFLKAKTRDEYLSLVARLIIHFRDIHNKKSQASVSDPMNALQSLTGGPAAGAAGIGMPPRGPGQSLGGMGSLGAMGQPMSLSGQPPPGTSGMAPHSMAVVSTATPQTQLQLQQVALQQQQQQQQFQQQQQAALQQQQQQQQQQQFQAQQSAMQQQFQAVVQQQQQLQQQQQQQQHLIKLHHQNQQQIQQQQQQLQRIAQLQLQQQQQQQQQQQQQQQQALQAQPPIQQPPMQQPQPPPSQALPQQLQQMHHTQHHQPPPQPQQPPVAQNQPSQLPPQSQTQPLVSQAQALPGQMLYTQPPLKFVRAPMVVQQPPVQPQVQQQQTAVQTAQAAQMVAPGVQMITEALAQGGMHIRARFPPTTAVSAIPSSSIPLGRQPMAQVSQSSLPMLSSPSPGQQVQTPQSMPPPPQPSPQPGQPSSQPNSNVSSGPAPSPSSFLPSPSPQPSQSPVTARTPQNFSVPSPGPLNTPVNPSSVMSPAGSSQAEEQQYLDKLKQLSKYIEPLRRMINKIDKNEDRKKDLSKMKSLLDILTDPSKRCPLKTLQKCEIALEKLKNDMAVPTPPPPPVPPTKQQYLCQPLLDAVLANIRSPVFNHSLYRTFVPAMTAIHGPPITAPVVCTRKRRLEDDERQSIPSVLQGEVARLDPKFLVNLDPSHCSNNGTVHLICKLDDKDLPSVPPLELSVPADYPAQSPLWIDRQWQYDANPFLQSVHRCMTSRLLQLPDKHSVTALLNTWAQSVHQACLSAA
UniProt O43513: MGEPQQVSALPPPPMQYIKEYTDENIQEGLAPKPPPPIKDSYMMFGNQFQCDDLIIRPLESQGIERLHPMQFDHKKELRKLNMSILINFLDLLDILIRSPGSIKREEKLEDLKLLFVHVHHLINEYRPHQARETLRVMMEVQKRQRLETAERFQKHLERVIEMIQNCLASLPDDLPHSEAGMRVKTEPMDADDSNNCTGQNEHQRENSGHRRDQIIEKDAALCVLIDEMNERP
UniProt O95983: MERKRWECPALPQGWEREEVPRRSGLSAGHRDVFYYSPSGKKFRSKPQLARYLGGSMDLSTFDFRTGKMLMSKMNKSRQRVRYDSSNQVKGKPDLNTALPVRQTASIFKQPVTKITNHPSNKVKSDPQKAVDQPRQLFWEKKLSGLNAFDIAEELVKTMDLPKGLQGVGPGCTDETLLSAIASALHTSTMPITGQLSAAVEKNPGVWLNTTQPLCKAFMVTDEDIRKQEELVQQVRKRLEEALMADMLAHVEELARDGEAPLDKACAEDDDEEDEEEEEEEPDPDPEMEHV
UniProt Q9BTE3: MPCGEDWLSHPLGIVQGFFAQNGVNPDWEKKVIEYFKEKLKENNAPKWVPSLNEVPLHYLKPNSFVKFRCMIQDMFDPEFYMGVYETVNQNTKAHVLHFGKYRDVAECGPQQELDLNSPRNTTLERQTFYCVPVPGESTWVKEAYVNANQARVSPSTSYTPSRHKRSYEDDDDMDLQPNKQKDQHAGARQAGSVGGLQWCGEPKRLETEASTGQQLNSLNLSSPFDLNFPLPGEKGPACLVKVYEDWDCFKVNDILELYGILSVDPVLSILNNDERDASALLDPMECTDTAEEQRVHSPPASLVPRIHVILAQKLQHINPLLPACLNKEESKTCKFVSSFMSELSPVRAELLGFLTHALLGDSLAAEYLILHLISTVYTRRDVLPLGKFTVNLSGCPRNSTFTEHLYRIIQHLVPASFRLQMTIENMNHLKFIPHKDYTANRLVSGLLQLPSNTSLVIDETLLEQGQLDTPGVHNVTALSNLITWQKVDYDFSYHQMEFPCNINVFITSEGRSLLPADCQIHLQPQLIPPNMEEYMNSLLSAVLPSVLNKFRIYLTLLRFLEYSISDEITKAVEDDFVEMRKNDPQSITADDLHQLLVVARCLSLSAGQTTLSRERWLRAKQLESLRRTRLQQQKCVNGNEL
UniProt Q6ZWT7: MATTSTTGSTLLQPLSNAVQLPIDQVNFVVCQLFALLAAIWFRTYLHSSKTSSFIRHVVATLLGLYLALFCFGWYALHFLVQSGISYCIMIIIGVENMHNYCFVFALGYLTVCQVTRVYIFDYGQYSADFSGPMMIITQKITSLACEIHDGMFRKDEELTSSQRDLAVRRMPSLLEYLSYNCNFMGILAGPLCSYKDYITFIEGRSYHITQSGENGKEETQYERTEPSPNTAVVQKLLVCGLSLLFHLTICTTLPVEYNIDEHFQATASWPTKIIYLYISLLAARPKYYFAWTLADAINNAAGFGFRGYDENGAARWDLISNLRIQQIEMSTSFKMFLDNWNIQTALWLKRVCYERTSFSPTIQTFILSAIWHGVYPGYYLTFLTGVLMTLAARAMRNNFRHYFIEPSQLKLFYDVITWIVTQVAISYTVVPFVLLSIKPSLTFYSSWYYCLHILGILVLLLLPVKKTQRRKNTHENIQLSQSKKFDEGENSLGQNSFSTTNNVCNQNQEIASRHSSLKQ

Tests used:
Experiment in all cases: log2 fold change, soluble protein after heating vs DMSO (PISA); higher = thermal stabilisation; K562 cells, 10 uM, 30 min; active = over 0.2 and 3.5 SD of the protein, either way, in both replicates (recomputed)
erlotinib = compound: C#Cc1cccc(Nc2ncnc3cc(OCCOC)c(OCCOC)cc23)c1 [erlotinib]
In short: (§1)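 K562 cells (2×10^6 cells/mL) were treated with 10 μM compound for 30 min, and aliquots were heated for 3 min over 48°C-58°C. Pooled aliquots were extracted in PBS with 0.5% NP-40 at 4°C, and the supernatant after 21,000xg for 90 min was measured by TMTpro 16plex LC-MS/MS with channel sums equalised. Reported thermal stability, relative to control samples and from duplicates, is a log2 fold change.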

[1] = compound: C/C(=N\NC(=O)C1=CC(=CC=C1)S(=O)(=O)N2CCOCC2)/C3=C(C=CC(=C3)Cl)O
In short: as §1

[2] = compound: C1=CC(=C(C=C1Cl)C2=NC3=NC=CN=C3C(=N2)NC4=CC=NC=C4)F
In short: as §1

[3] = compound: C1=CC(=CC=C1C2=NC3=C(N2)C=C(C=C3)C(=O)N)OC4=CC=C(C=C4)Cl
In short: as §1

[4] = compound: C1=CC2=C(C=CC(=C2)/C=C\3/C(=O)NC(=NCC4=CC=CS4)S3)N=C1
In short: as §1

[5] = compound: C1=CC2=NC=CN=C2C=C1/C=C/3\C(=O)NC(=O)S3
In short: as §1

[6] = compound: C1=CC=C(C=C1)C2=NC(=C(N2)C3=CC=NC=C3)C4=CC(=C(C=C4)Cl)O
In short: as §1

[7] = compound: C1=CC=C2C(=C1)C3=NNC4=CC=CC(=C43)C2=O
In short: as §1

[8] = compound: C1CCN(C1)C(=O)NC2=CC=CC(=C2)NC3=NC=C(C(=N3)NCCC4=CN=CN4)Br
In short: as §1

[9] = compound: C1CN(CCC1(CC2=CC=C(C=C2)Cl)N)C3=NC=NC4=C3C=CN4
In short: as §1

Measured: log2 fold change

MBTPS1 (UniProt Q14703)
inactive: erlotinib -0.074 | [1] -0.05 | [2] -0.078 | [3] 0.204 | [4] 0.03 | [5] -0.005 | [6] -0.116 | [7] 0.012 | [8] -0.002 | [9] 0.022

MED24 (UniProt O75448)
inactive: erlotinib -0.126 | [1] 0.114 | [2] -0.083 | [3] 0.043 | [4] 0.03 | [5] 0.009 | [6] -0.041 | [7] -0.051 | [8] -0.063 | [9] -0.018

MCCC2 (UniProt Q9HCC0)
inactive: erlotinib 0.019 | [1] 0.123 | [2] 0.03 | [3] 0.004 | [4] -0.04 | [5] 0.011 | [6] 0.047 | [7] 0.004 | [8] 0.004 | [9] 0.035

MAX (UniProt P61244)
inactive: erlotinib -0.02 | [1] -0.012 | [2] -0.094 | [3] 0.019 | [4] -0.029 | [5] 0.02 | [6] -0.052 | [7] -0.05 | [8] 0.03 | [9] 0.045

MCAT (UniProt Q8IVS2)
inactive: erlotinib -0.025 | [1] -0.019 | [2] -0.085 | [3] 0.029 | [4] 0.013 | [5] 0.034 | [6] 0.023 | [7] 0.031 | [8] 0.025 | [9] -0.01

MBLAC2 (UniProt Q68D91)
inactive: erlotinib 0.04 | [1] -0.009 | [2] -0.033 | [3] 0.051 | [4] 0.098 | [5] 0.047 | [6] 0.01 | [7] -0.032 | [8] -0.097 | [9] 0.017

MCRIP1 (UniProt I3L4Q0)
inactive: erlotinib -0.065 | [1] -0.012 | [2] 0.001 | [3] 0.002 | [4] 0.012 | [5] 0.016 | [6] -0.071 | [7] -0.057 | [8] -0.009 | [9] -0.022

MCM4 (UniProt P33991)
inactive: erlotinib 0.019 | [1] 0.038 | [2] 0.058 | [3] 0.017 | [4] 0.044 | [5] 0.023 | [6] 0.036 | [7] 0.012 | [8] -0.026 | [9] -0.014

MDC1 (UniProt Q14676)
inactive: erlotinib 0.056 | [1] -0.284 | [2] -0.184 | [3] 0.025 | [4] 0 | [5] 0.057 | [6] 0.177 | [7] -0.094 | [8] -0.139 | [9] 0.072

MASTL (UniProt Q96GX5)
inactive: erlotinib 0.008 | [1] 0.045 | [2] 0.026 | [3] -0.015 | [4] -0.076 | [5] 0.124 | [6] -0.087 | [7] 0.007

MEAK7 (UniProt Q6P9B6)
inactive: erlotinib 0.015 | [1] -0.005 | [2] 0.023 | [3] 0.054 | [4] 0.069 | [5] 0.014 | [6] -0.062 | [7] 0.092 | [8] -0.042 | [9] -0.017

MCM6 (UniProt Q14566)
inactive: erlotinib -0.02 | [1] 0.04 | [2] 0.054 | [3] 0.003 | [4] 0.017 | [5] 0.018 | [6] 0.02 | [7] 0.007 | [8] -0.004 | [9] -0.002

ME1 (UniProt P48163)
inactive: erlotinib -0.02 | [1] -0.001 | [2] 0.02 | [3] -0.006 | [4] 0.051 | [5] 0.015 | [6] 0.014 | [7] -0.019 | [8] 0.028 | [9] 0.037

MED18 (UniProt Q9BUE0)
inactive: erlotinib -0.072 | [1] 0.049 | [2] 0.072 | [3] 0.014 | [4] 0.023 | [5] 0.081 | [6] 0.049 | [7] -0.004 | [8] 0.002 | [9] -0.008

MGME1 (UniProt Q9BQP7)
inactive: erlotinib 0.017 | [1] 0.077 | [2] 0.054 | [3] 0.023 | [4] -0.026 | [5] 0.038 | [6] 0.035 | [7] 0.019 | [8] -0.005 | [9] 0.013

Taken from the listing (2 entries):
ME1 (UniProt P48163)
inactive: erlotinib -0.02 | [1] -0.001 | [2] 0.02 | [3] -0.006 | [4] 0.051 | [5] 0.015 | [6] 0.014 | [7] -0.019 | [8] 0.028 | [9] 0.037

MED18 (UniProt Q9BUE0)
inactive: erlotinib -0.072 | [1] 0.049 | [2] 0.072 | [3] 0.014 | [4] 0.023 | [5] 0.081 | [6] 0.049 | [7] -0.004 | [8] 0.002 | [9] -0.008

Additional results follow.

MBD2 (UniProt Q9UBB5)
inactive: erlotinib 0.263 | [1] -0.121 | [2] -0.118 | [3] 0.056 | [4] 0.16 | [5] 0.069 | [6] 0.06 | [7] 0.072 | [8] 0.132 | [9] -0.082

MIA3 (UniProt Q5JRA6)
inactive: erlotinib 0.008 | [1] 0.004 | [2] 0.014 | [3] -0.021 | [4] -0.029 | [5] 0.005 | [6] -0.043 | [7] -0.083 | [8] 0.014 | [9] -0.006

MED14 (UniProt O60244)
inactive: erlotinib -0.042 | [1] 0.049 | [2] -0.155 | [3] 0.059 | [4] -0.013 | [5] 0.102 | [6] -0.043 | [7] 0.023 | [8] -0.039 | [9] -0.02

MGAT5 (UniProt Q09328)
inactive: erlotinib -0.003 | [1] -0.026 | [2] -0.187 | [3] 0.012 | [4] 0.042 | [5] -0.028 | [6] -0.038 | [7] 0 | [8] -0.14 | [9] 0.012

MDP1 (UniProt Q86V88)
inactive: erlotinib 0.008 | [1] -0.017 | [2] 0.069 | [3] -0.01 | [4] 0.004 | [5] 0.059 | [6] 0.059 | [7] -0.041 | [8] 0.004 | [9] 0.017

MCM3 isoform 2 (UniProt P25205)
inactive: erlotinib -0.018 | [1] 0.027 | [2] 0.079 | [3] 0.007 | [4] -0.016 | [5] -0.004 | [6] 0.023 | [7] 0.016 | [8] -0.012 | [9] -0.012

METTL1 (UniProt Q9UBP6)
inactive: erlotinib 0.024 | [1] 0.023 | [2] 0.101 | [3] 0.032 | [4] 0.063 | [5] -0.016 | [6] 0.081 | [7] 0.025 | [8] 0.05 | [9] 0.055

MED15 (UniProt Q96RN5)
inactive: erlotinib -0.024 | [1] 0.002 | [2] 0 | [3] 0.011 | [4] 0.055 | [5] 0.048 | [6] -0.073 | [7] -0.015 | [8] 0.025 | [9] -0.027

MED7 (UniProt O43513)
inactive: erlotinib 0.065 | [1] -0.109 | [2] 0.041 | [3] 0.053 | [4] 0.065 | [5] 0.015 | [6] 0.017 | [7] -0.152 | [8] -0.114 | [9] 0.039

MFSD1 isoform 6 (UniProt Q9H3U5)
inactive: erlotinib -0.011 | [1] 0.011 | [2] 0.006 | [3] 0.029 | [4] -0.002 | [5] -0.009 | [6] 0.018 | [7] 0.014 | [8] 0.059 | [9] 0.084

MBD3 (UniProt O95983)
inactive: erlotinib -0.023 | [1] 0.037 | [2] -0.035 | [3] -0.005 | [4] -0.022 | [5] 0.037 | [6] -0.014 | [7] -0.079 | [8] -0.004 | [9] 0.045

MCMBP (UniProt Q9BTE3)
inactive: erlotinib -0.016 | [1] 0.045 | [2] 0.07 | [3] 0.034 | [4] 0.084 | [5] -0.022 | [6] -0.037 | [7] 0.115 | [8] -0.068 | [9] -0.007

MIA2 (UniProt Q96PC5)
inactive: erlotinib 0.01 | [1] 0.044 | [2] 0.04 | [3] -0.044 | [4] -0.033 | [5] 0.035 | [6] 0.021 | [7] -0.092 | [8] 0.003 | [9] 0.041

MBOAT2 (UniProt Q6ZWT7)
inactive: erlotinib -0.013 | [1] 0 | [2] 0.008 | [3] 0.014 | [4] 0.037 | [5] 0.006 | [6] 0.023 | [7] -0.01 | [8] 0.022 | [9] 0.094

MCL1 (UniProt Q07820)
inactive: erlotinib -0.225 | [1] 0 | [2] -0.037 | [3] -0.01 | [4] -0.057 | [5] 0.027 | [6] -0.121 | [7] -0.161 | [8] -0.039 | [9] 0
